From article PMC10163288
This is one part of the list.

B1: il2ra_site1_2b5i_normal_mot_HHH_b2_04910_000000118_0001_1_19_H_._HHH_b1_06660_0001_0000100005_0000001_0_af2pred_dldesign_0_af2pred (protein)
chain: SSSSSKEVEELFKKAEELYKEGKYEEALKVLKEALELAKKEKQNLAVKFIESALKQIELLLSSSS
B2: il2ra_site1_2b5i_normal_mot_HHH_b1_03515_af2_000000188_0001_1_19_H_._HHH_b1_05649_0002_0000200038_0000001_0_af2pred_dldesign_0_af2pred (protein)
chain: SSSSSPESIELSDVIEELQEKYGLDEDQYAELRRLAIELHYKGVPLEEIRRRLEERARELGSSSS
B3: il2ra_site1_1z92_sap_21_mot_HHH_b1_02849_000000017_0001_22_39_H_._HHH_b2_00342_af2_0001_0000300060_0000001_0_0001 (protein)
chain: SSSSDERLERAAEVVVRILVELANLSEEDEERLQELAEELVERGVDSLELIKILDELAVRLSSSS
B4: il2ra_site1_3nfp_sap_13_mot_HHH_b2_01582_af2_000000000_0001_1_16_H_._HHH_b2_07153_0001_0000500025_0000001_0_0001_af2pred_0001_af2pred (protein)
chain: SSSSSALEVLEERFKEALERGDEHQARVILELLKEAAELHNDEELEKRVRELEEELRELFSSSSS
B5: il2ra_site1_3nfp_sap_13_mot_fe74bfd50694bb190af954a823403fd2_0001_af2_000000013_0001_1_15_H_._HHH_b1_00410_0001_0000100002_0000001_0_0001_af2pred_0001_af2pred_s … (protein)
chain: SSSSSDEREEIRKLLEEADRLYKNGDPEEARRVLEEALELAKEANNPAMRKFLEQSLRIASSSSS
B6: il2ra_site2_2erj_normal_mot_HHH_b1_04462_000000080_0001_40_56_H_._HHH_b1_01567_0001_0000500048_0000001_0 (protein)
chain: SSSDTEEDSVEMAERDFRRLVEEGDPERARSLARLAERFAERSGDEEVLEKIRELLEELENSSSS
B7: il2ra_site2_3nfp_sap_15_mot_HHH_b1_03605_000000160_0001_1_19_H_._78f3cea537ddf5c4686abc92c323a9bd_0001_af2_0001_0001300041_0000001_0_0001 (protein)
chain: SSSSSEEVKELIEEVEELLKKGDDREAAQVLLRASELALEDGDEELLRRLLELYKEIAERRSSSS
B8: il2ra_site2_3nfp_normal_mot_49a7c9051cacde34b31d84fabeb7f3ea_0001_af2_000000030_0001_39_52_H_._HHH_b2_06514_af2_0001_0000200005_0000001_0 (protein)
chain: SSSSDEEEEELEELQKLLKRLKEEGDRFELLRVLFRAAKLAAKLGDREAVRRELELYEELASSSS
B9: il2ra_site1_3nfp_normal_mot_HHH_b1_03420_af2_000000029_0001_41_57_H_._HHH_b2_05734_af2_0001_0000300011_0000001_0 (protein)
chain: SSSSDLEKASKIAEEIIKLLSHGDPEEAERLLEELEELAKELGSELAKWLVEELEEAIKLRSSSS
B10: il2ra_site2_2erj_sap_29_mot_dcd9809507f71d420582ead1f1e1bbb3_0001_000000226_0001_37_50_H_._HHH_b1_02896_af2_0001_0000500038_0000001_0_0001 (protein)
chain: SSSSSSLHELYELANRLMHALSNGDEELLEELLEELEELAKELQSDTAREIVENIRRRLSSSSSS
B11: il2ra_site2_3nfp_sap_26_mot_HHH_b1_04264_000000089_0001_1_18_H_._cc38c158466f61ccbd7ce36cb6c4896f_0001_0001_0000100003_0000001_0_0001 (protein)
chain: SSSSSDVEELLEEAEELIEDGNPYEAAQVLLEAAELIARRGDEELARILLELFELLQRKGSSSSS
B12: il2ra_site1_3nfp_sap_18_mot_HHH_b1_05070_af2_000000282_0001_43_57_H_._HHH_b1_01516_af2_0001_0000200009_0000001_0_0001_af2pred_dldesign_0_af2pred (protein)
chain: SSSSSSDPQKLFEEASKAYDAGKLEEAKELLEKARAAALAAGRHALARFIERCLKSLKSSSSSSS
B13: il2ra_site2_3nfp_normal_mot_HHH_b1_00553_af2_000000024_0001_18_52_H_._065ff1a2d9b8d7deec6d0c3749ab815f_0001_1_0001_0000300029_0000001_0 (protein)
chain: DELEEKLARLLAEDPDNHAIFVALALLIQLKEGEIPPEKIERALRRLLEELGDPLVEEVLEELER
B14: il2ra_site1_1z92_normal_mot_76fe7993c3ad9ffb2b2ee76f24d0ea53_0001_af2_000000057_0001_36_49_H_._4bbf342bb4568474bb2f38d9b0ee6fc8_0001_af2_0001_0000100008_0000001 … (protein)
chain: SSSSDEEELAEELVRELIEELGGSEELKEAAERDAKRSLEAGISEKSVRRALENAIRLTNSSSSS
B15: il2ra_site1_3nfp_sap_15_mot_46d73865503fbedcaf0f3a45445d594c_0001_af2_000000151_0001_1_12_H_._HEEHE_2475_0001_0000500042_0000001_0_0001_af2pred_0001_af2pred_swa … (protein)
chain: SSSSSQERIRELLKRAEELLKNGNPEEAEELLREALELAEERGSPNTRKFLEKALENIERSSSSS
B16: il2ra_site2_3nfp_sap_13_mot_HHH_b2_07749_000000092_0001_22_39_H_._0e2d25f789470a7fb5ac47814863eff0_0001_1_0001_0000100005_0000001_0_0001 (protein)
chain: SSSSDVEEFARELTEEAREKYEEGNPEEALEILLRAAAYVWERNDFEAFAILSELAQKIASSSSS
B17: il2ra_site2_3nfp_sap_20_mot_HHH_b2_06100_000000049_0001_1_16_H_._HHH_b1_05695_0001_0000700056_0000001_0_0001_af2pred_0001_1_af2pred_swapped (protein)
chain: SSSDETKEEVKKLLEEVEELIKQGNEEEARRVLKEAFRVAREGNDVEALVEVLELRRKLFQSSSS
B18: il2ra_site2_2erj_normal_mot_76e6e8f7232a9e65eeaab5ff8ecb4c96_0001_000000242_0001_17_31_H_._HHH_eva_0320_af2_0001_0000500007_0000001_1 (protein)
chain: SSTEEEEVRRVVEEAEELIKRGDLEEAEEVLSEAFTLVYELGDEELVILILELAHELVRLLAKSS
B19: il2ra_site1_1z92_sap_9_mot_HHH_b1_05973_af2_000000047_0001_39_50_H_._HHH_b2_00944_0001_0000500019_0000001_0_0001_af2pred_0001_af2pred (protein)
chain: SSSSSDKELVVRFLIEQLERKLELGNPRAAERVFEMARQVIEEAGDEELRELLEEVREELSSSSS
B20: il2ra_site2_2erj_sap_27_mot_HHH_b2_03845_000000122_0001_43_56_H_._HHH_b2_05868_0001_0000100002_0000001_0_0001_af2pred_dldesign_0_af2pred (protein)
chain: SSSSSSDPREEVLRLIEEAKKEKDPKKAKKLLIKAYYLAKKLGDEELIAKVKEVYEELSSSSSSS
B21: il2ra_site1_2b5i_normal_mot_HHH_b2_04910_000000118_0001_1_19_H_._HHH_b1_07627_af2_0001_0000400018_0000001_1_af2pred_dldesign_0_af2pred (protein)
chain: SSSSSLAEEARRLFLEADRLKQAGKEEEAKEVLEKALELAKAAGANLLARIIELALKDLESSSSS
B22: il2ra_site1_3nfp_sap_20_mot_1cd86ef9f1587ae5d14d35bbbd8e7f1d_0001_1_000000087_0001_34_49_H_._HHH_b1_07471_0001_0000400010_0000001_0_0001 (protein)
chain: SSSSDAMEFMEEMIERAFENNDRLQLRALIKILKRAAEQYGDPEVRELLKQAEELLEELNSSSSS
B23: il2ra_site2_2erj_normal_mot_64bd02d26d05ce9f1a62b616cea0b888_0001_af2_000000020_0001_36_49_H_._HHH_b2_03060_0001_0000400019_0000001_0 (protein)
chain: SSSDRELTEFVLRVVYELLTEFNLSLEQMEELFELAEELLRRGVSEEEIEELLRELAEELSSSSS
B24: il2ra_site1_3nfp_sap_20_mot_HHH_b1_07180_af2_000000260_0001_1_19_H_._HHH_b1_03095_af2_0001_0000100004_0000001_0_0001 (protein)
chain: SSSSDHLERVVEELVEELGLTRHAQKALERAVEQLKEMGISEEEAEKALRDAARMFAEIVSSSSS

The binders below were run against il2ra, P01589 (assay: yeast display titration).

Apparent Kd, inactive:
B1 no binding seen
B2 no binding seen
B3 no binding seen
B4 no binding seen
B5 no binding seen
B6 no binding seen
B7 no binding seen
B8 no binding seen
B9 no binding seen
B10 no binding seen
B11 no binding seen
B12 no binding seen
B13 no binding seen
B14 no binding seen
B15 no binding seen
B16 no binding seen
B17 no binding seen
B18 no binding seen
B19 no binding seen
B20 no binding seen
B21 no binding seen
B22 no binding seen
B23 no binding seen
B24 no binding seen

Retrieved one by one from the entries so far:
Apparent Kd, inactive:
B8 no binding seen
B23 no binding seen
